Measured values reported in article PMC4273968.
These are yes or no findings as the source states them, for the method shown. In cells and extracts the contact can be indirect. Some entries that bind do so weakly or less than the wild type. Sequences can lack the tags named with a protein.

Molecular target: T1, myc-tagged C160, the largest subunit of Pol III (S. cerevisiae) (UniProt P04051)
T1 sequence: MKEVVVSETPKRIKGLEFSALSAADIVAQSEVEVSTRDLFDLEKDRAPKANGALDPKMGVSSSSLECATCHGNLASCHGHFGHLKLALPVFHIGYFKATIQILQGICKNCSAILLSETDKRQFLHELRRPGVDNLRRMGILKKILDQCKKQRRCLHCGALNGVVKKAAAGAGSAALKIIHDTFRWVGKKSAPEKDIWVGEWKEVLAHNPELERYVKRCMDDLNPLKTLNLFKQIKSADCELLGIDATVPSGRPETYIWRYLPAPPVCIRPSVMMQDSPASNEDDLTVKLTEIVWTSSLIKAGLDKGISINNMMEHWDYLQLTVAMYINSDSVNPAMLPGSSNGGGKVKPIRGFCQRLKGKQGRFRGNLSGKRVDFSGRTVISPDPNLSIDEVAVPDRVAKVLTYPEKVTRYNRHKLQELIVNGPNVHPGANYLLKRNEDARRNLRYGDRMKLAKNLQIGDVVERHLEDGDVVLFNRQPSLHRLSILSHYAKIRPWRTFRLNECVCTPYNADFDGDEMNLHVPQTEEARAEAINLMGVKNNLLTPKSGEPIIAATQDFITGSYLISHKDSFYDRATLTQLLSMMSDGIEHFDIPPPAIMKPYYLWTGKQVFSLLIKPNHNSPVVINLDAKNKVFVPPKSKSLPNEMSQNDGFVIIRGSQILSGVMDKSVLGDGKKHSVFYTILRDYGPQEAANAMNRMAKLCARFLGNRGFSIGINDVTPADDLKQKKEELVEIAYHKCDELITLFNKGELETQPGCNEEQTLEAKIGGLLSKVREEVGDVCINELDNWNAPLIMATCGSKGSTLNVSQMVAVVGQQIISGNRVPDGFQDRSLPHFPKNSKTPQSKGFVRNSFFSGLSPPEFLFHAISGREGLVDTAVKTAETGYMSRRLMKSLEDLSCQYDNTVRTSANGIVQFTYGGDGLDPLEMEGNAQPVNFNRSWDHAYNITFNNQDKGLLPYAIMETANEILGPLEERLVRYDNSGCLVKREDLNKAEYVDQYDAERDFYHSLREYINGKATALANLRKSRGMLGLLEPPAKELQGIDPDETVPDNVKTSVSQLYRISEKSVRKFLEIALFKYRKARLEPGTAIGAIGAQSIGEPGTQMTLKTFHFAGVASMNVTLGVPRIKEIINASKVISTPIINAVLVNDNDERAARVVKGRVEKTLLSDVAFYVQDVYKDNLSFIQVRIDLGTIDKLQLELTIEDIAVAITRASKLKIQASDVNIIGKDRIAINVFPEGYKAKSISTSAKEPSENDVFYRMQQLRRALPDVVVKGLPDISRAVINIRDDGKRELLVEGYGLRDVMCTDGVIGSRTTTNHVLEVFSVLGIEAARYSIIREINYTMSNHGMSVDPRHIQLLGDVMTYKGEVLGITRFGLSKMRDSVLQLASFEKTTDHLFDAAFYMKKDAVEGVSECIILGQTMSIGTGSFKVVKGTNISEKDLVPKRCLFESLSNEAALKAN
Assay: co-IP; protein extracts of cells expressing C160-13myc, with (WT) or without Sub1 (sub1Δ), grown in YPD: exponential phase, day1 and day5 stationary phase, 0.25 h to 6 h after inoculation into fresh medium; magnetic beads coated with anti-myc; immunoblot with anti-myc or anti-Maf1

binding: binds
B1: Maf1 (protein, UniProt P41910 1-395)
chain: MKFIDELDIERVNQTLNFETNDCKIVGSCDIFTTKAVASDRKLYKTIDQHLDTILQENENYNATLQQQLAAPETNQSPCSSPFYSNRRDSNSFWEQKRRISFSEYNSNNNTNNSNGNSSNNNNYSGPNGSSPATFPKSAKLNDQNLKELVSNYDSGSMSSSSLDSSSKNDERIRRRSSSSISSFKSGKSSNNNYSSGTATNNVNKRRKSSINERPSNLSLGPFGPINEPSSRKIFAYLIAILNASYPDHDFSSVEPTDFVKTSLKTFISKFENTLYSLGRQPEEWVWEVINSHMTLSDCVLFQYSPSNSFLEDEPGYLWNLIGFLYNRKRKRVAYLYLICSRLNSSTGEVEDALAKKPQGKLIIDDGSNEYEGEYDFTYDENVIDDKSDQEESLQ
